Results published in patent US20060270596A1.
These are yes or no findings as the source states them, for the method shown. Binding seen in cells or lysates may run through a third protein. Some entries that bind do so weakly or less than the wild type. For some assays here: Sequences can lack the tags named with a protein.

Chains of the proteins cited; added tags and fusions are not shown. Lines headed by an entry give the natural chain unless they say otherwise; changes in a name come on top. Residues count along the entry.
UniProt Q99616: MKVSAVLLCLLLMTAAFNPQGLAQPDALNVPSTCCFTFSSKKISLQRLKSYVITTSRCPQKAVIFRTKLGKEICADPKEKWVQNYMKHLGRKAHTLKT
UniProt O00585: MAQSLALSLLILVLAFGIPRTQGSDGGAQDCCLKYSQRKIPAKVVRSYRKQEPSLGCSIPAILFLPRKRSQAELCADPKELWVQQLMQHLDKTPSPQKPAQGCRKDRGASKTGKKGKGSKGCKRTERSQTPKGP
UniProt P13500: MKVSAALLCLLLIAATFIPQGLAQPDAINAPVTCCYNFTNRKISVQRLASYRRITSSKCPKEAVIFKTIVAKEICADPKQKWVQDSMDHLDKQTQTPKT
UniProt P48061, residues 1-89: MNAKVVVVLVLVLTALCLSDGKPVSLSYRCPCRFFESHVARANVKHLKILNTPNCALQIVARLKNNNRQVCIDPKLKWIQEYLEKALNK
UniProt Q9H0W7: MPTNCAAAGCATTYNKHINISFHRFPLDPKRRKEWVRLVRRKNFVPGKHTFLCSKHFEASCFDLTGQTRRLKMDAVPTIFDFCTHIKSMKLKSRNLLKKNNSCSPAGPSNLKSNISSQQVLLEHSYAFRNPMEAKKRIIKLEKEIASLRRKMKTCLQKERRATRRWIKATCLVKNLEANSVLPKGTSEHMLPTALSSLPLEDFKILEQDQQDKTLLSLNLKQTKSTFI

How the values were obtained:
[1] = biological target: T1, GST-Par4DD fusion protein (Par4 amino acids 250-342) (human) (UniProt Q96IZ0); assay: GST pull-down: in vitro translated 35S-labelled protein on GST-Par4DD immobilised on glutathione sepharose, SDS-PAGE, fluorography
T1 sequence: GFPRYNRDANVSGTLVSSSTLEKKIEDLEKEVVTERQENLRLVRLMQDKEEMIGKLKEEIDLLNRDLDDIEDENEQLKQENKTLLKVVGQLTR

[2] = biological target: T1, GST-Par4DD fusion protein (Par4 amino acids 250-342) (human); assay: GST pull-down, 35S-labelled in vitro translated THAP2 on GST-Par4DD (FIG. 10C)
[3] = biological target: T2, THAP1-C3 deletion mutant (amino acids 143-213) (human) (UniProt Q9NVV9); assay: GST pull-down: in vitro translated 35S-labelled protein on the GST fusion immobilised on glutathione sepharose, SDS-PAGE, fluorography
T2 sequence: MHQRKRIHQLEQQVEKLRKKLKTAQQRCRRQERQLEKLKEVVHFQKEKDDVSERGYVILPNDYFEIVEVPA

[4] = biological target: T3, chemokine CXCL11 (UniProt O14625); assay: as above
T3 sequence (looked up): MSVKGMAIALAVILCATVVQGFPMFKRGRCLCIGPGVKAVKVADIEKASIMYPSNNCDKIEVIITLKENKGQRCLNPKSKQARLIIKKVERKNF

[5] = biological target: chemokine CCL13 (UniProt Q99616); assay: as above
[6] = biological target: human chemokine SLC/CCL21, mature form (amino acids 24-134) (human) (UniProt O00585); assay: as above
[7] = biological target: chemokine CCL2 (UniProt P13500); assay: GST pull-down, 35S-labelled in vitro translated chemokine
[8] = biological target: T4, human chemokine MIG/CXCL9, mature form (amino acids 23-125) (human) (UniProt Q07325); assay: as above
T4 sequence: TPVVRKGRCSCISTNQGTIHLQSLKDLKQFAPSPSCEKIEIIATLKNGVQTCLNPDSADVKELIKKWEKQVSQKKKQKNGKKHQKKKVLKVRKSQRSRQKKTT

[9] = biological target: chemokine CXCL12 (UniProt P48061); assay: as above
[10] = biological target: human chemokine SLC/CCL21, mature form (amino acids 24-134) (human) (UniProt O00585); assay: as above
[11] = biological target: T2, THAP1-C3 deletion mutant (amino acids 143-213) (human); assay: GST pull-down, 35S-labelled in vitro translated molecule
[12] = biological target: T3, chemokine CXCL11; assay: as above
[13] = biological target: chemokine CCL13 (UniProt Q99616); assay: as above
[14] = biological target: human chemokine SLC/CCL21, mature form (amino acids 24-134) (human) (UniProt O00585); assay: as above
[15] = biological target: T4, human chemokine MIG/CXCL9, mature form (amino acids 23-125) (human); assay: GST pull-down: in vitro translated 35S-labelled chemokine or cytokine on the GST fusion immobilised on glutathione sepharose, SDS-PAGE, fluorography
[16] = biological target: chemokine CXCL12 (UniProt P48061); assay: as above
[17] = biological target: human chemokine SLC/CCL21, mature form (amino acids 24-134) (human) (UniProt O00585); assay: as above

binding [1]	binding [2]	binding [3]	binding [4]	binding [5]	binding [6]	binding [7]	binding [8]	binding [9]	binding [10]	binding [11]	binding [12]	binding [13]	binding [14]	binding [15]	binding [16]	binding [17]	Substance
binds	binds																human THAP2, full length (from UniProt Q9H0W7 1-228)
		binds	binds	binds	binds	binds	binds	binds	binds	binds	binds	binds	binds	binds	binds	binds	GST-THAP2 133-228 (chemokine-binding domain of THAP2) (from UniProt Q9H0W7 133-228)
